According to paper PMC12204631:
No constants are given. Whether binding was seen depends on the method and setting. In cells and extracts the contact can be indirect. Some results given as binding are weak or reduced against the parent protein; the word gives no strength. Where a sequence is shown, tags or fusion partners need not be part of it.

How the values were obtained:
Dam1-3HA (S. cerevisiae) [1] = target: T1, Dam1-3HA (S. cerevisiae) (UniProt P53267); test: co-IP; whole cell extracts of yeast expressing Dam1-3HA and Set1-9Myc from their native promoters; IP with α-HA conjugated agarose beads, western blot with α-HA and α-Myc; cells in S-phase (HU) and in metaphase (80 min after release from α-factor)
T1 sequence: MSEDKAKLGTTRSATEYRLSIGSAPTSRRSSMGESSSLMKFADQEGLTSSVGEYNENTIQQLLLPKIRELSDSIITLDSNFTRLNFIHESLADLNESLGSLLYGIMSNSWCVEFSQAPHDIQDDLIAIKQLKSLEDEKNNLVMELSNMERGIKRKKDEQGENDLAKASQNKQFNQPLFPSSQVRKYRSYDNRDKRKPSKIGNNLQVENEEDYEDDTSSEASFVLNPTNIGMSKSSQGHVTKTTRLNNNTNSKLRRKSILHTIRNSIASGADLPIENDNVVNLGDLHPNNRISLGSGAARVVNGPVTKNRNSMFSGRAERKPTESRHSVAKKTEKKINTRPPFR

Dam1-3HA (S. cerevisiae) [2] = target: T1, Dam1-3HA (S. cerevisiae); test: condition: only cells synchronized in G1 with α-factor; co-IP; as a1, but cells synchronized in G1 with α-factor; IP with α-HA conjugated agarose beads, western blot with α-HA and α-Myc
Dam1-3HA (S. cerevisiae) [3] = target: T1, Dam1-3HA (S. cerevisiae); test: co-IP; whole cell extracts of LOG phase yeast with Dam1-3HA (endogenous promoter) and FLAG-JHD2 (GAL1 promoter, galactose+raffinose 6 hours); IP with α-HA conjugated and α-Flag conjugated agarose beads, western blot with α-HA and α-Flag
[4] = target: T2, Flag-tagged Jhd2 (S. cerevisiae) (UniProt P47156); test: as above
T2 sequence: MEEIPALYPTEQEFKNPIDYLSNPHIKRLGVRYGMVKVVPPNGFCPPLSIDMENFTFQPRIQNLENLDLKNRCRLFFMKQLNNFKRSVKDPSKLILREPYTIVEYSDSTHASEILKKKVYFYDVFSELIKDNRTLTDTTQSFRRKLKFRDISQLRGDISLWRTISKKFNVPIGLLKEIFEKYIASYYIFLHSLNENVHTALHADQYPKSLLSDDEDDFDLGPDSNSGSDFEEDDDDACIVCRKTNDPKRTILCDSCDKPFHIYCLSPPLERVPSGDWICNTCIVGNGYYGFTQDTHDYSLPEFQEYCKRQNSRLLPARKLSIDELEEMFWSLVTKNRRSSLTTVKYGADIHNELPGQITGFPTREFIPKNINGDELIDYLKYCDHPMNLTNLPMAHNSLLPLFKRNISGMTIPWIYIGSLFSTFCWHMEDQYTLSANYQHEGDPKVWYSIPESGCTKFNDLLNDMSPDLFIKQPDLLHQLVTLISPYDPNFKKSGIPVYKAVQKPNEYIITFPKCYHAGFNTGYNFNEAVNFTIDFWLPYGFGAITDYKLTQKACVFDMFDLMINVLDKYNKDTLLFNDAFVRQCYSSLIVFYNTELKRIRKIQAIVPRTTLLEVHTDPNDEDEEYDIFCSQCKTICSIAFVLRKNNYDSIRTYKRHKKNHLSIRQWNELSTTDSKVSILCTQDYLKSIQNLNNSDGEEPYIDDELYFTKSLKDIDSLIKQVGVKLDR

B1: Set1-9Myc (enzyme, UniProt P38827 1-1080)
chain: MSNYYRRAHASSGSYRQPQEQPQYSRSGHYQYSNGHSHQQYSSQYNQRRRYNHNDGTRRRYNDDRPHSSNNASTRQYYATNNSQSGPYVNKKSDISSRRGMSQSRYSNSNVHNTLASSSGSLPTESALLLQQRPPSVLRYNTDNLKSKFHYFDPIKGEFFNKDKMLSWKATDKEFSETGYYVVKELQDGQFKFKIKHRHPEIKASDPRNENGIMTSGKVATHRKCRNSLILLPRISYDRYSLGPPPSCEIVVYPAQDSTTTNIQDISIKNYFKKYGEISHFEAFNDPNSALPLHVYLIKYASSDGKINDAAKAAFSAVRKHESSGCFIMGFKFEVILNKHSILNNIISKFVEINVKKLQKLQENLKKAKEKEAENEKAKELQGKDITLPKEPKVDTLSHSSGSEKRIPYDLLGVVNNRPVLHVSKIFVAKHRFCVEDFKYKLRGYRCAKFIDHPTGIYIIFNDIAHAQTCSNAESGNLTIMSRSRRIPILIKFHLILPRFQNRTRFNKSSSSSNSTNVPIKYESKEEFIEATAKQILKDLEKTLHVDIKKRLIGPTVFDALDHANFPELLAKRELKEKEKRQQIASKIAEDELKRKEEAKRDFDLFGLYGGYAKSNKRNLKRHNSLALDHTSLKRKKLSNGIKPMAHLLNEETDSKETTPLNDEGITRVSKEHDEEDENMTSSSSEEEEEEAPDKKFKSESEPTTPESDHLHGIKPLVPDQNGSSDVLDASSMYKPTATEIPEPVYPPEEYDLKYSQTLSSMDLQNAIKDEEDMLILKQLLSTYTPTVTPETSAALEYKIWQSRRKVLEEEKASDWQIELNGTLFDSELQPGSSFKAEGFRKIADKLKINYLPHRRRVHQPLNTVNIHNERNEYTPELCQREESSNKEPSDSVPQEVSSSRDNRASNRRFQQDIEAQKAAIGTESELLSLNQLNKRKKPVMFARSAIHNWGLYALDSIAAKEMIIEYVGERIRQPVAEMREKRYLKNGIGSSYLFRVDENTVIDATKKGGIARFINHCCDPNCTAKIIKVGGRRRIVIYALRDIAASEELTYDYKFEREKDDEERLPCLCGAPNCKGFLN
Dam1-3HA (S. cerevisiae) [1]
  binding: binds
Dam1-3HA (S. cerevisiae) [2]
  binding: no binding

B2: Flag-tagged Jhd2 (enzyme, UniProt P47156 1-728)
chain: MEEIPALYPTEQEFKNPIDYLSNPHIKRLGVRYGMVKVVPPNGFCPPLSIDMENFTFQPRIQNLENLDLKNRCRLFFMKQLNNFKRSVKDPSKLILREPYTIVEYSDSTHASEILKKKVYFYDVFSELIKDNRTLTDTTQSFRRKLKFRDISQLRGDISLWRTISKKFNVPIGLLKEIFEKYIASYYIFLHSLNENVHTALHADQYPKSLLSDDEDDFDLGPDSNSGSDFEEDDDDACIVCRKTNDPKRTILCDSCDKPFHIYCLSPPLERVPSGDWICNTCIVGNGYYGFTQDTHDYSLPEFQEYCKRQNSRLLPARKLSIDELEEMFWSLVTKNRRSSLTTVKYGADIHNELPGQITGFPTREFIPKNINGDELIDYLKYCDHPMNLTNLPMAHNSLLPLFKRNISGMTIPWIYIGSLFSTFCWHMEDQYTLSANYQHEGDPKVWYSIPESGCTKFNDLLNDMSPDLFIKQPDLLHQLVTLISPYDPNFKKSGIPVYKAVQKPNEYIITFPKCYHAGFNTGYNFNEAVNFTIDFWLPYGFGAITDYKLTQKACVFDMFDLMINVLDKYNKDTLLFNDAFVRQCYSSLIVFYNTELKRIRKIQAIVPRTTLLEVHTDPNDEDEEYDIFCSQCKTICSIAFVLRKNNYDSIRTYKRHKKNHLSIRQWNELSTTDSKVSILCTQDYLKSIQNLNNSDGEEPYIDDELYFTKSLKDIDSLIKQVGVKLDR
Dam1-3HA (S. cerevisiae) [3]
  binding: binds

B3: Dam1-3HA (protein, UniProt P53267 1-343)
chain: MSEDKAKLGTTRSATEYRLSIGSAPTSRRSSMGESSSLMKFADQEGLTSSVGEYNENTIQQLLLPKIRELSDSIITLDSNFTRLNFIHESLADLNESLGSLLYGIMSNSWCVEFSQAPHDIQDDLIAIKQLKSLEDEKNNLVMELSNMERGIKRKKDEQGENDLAKASQNKQFNQPLFPSSQVRKYRSYDNRDKRKPSKIGNNLQVENEEDYEDDTSSEASFVLNPTNIGMSKSSQGHVTKTTRLNNNTNSKLRRKSILHTIRNSIASGADLPIENDNVVNLGDLHPNNRISLGSGAARVVNGPVTKNRNSMFSGRAERKPTESRHSVAKKTEKKINTRPPFR
[4]
  binding: binds
